We go through 7 molecules from doi:10.1101/243014.

Amino acid sequences for entries named in this document (tags omitted). A change or cut given only in a name is not applied to a line headed by its entry.
UniProt P08621: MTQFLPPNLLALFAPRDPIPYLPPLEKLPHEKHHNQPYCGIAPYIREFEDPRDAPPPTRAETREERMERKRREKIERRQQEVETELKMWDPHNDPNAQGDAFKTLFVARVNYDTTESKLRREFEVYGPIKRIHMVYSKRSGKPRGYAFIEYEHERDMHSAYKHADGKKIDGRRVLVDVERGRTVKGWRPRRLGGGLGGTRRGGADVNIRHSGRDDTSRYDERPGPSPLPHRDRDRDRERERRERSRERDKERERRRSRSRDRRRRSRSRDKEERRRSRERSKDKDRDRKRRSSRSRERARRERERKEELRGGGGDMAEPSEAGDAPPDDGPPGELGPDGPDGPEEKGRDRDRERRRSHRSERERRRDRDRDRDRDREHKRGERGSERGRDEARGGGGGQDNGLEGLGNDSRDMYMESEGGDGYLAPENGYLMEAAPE
UniProt Q07955: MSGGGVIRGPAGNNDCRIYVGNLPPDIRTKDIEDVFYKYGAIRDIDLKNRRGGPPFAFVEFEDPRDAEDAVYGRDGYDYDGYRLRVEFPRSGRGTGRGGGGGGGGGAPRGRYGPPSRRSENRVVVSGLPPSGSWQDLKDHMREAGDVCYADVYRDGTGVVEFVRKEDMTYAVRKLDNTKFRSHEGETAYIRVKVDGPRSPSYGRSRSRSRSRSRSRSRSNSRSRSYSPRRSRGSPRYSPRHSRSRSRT
UniProt P09012: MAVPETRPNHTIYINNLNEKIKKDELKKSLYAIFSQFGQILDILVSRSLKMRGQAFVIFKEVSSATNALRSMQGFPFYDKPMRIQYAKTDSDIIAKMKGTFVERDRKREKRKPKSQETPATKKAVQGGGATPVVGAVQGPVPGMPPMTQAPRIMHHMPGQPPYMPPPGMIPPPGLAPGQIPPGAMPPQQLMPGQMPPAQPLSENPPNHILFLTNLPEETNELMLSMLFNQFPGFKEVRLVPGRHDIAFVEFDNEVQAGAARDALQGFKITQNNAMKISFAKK
UniProt P09234: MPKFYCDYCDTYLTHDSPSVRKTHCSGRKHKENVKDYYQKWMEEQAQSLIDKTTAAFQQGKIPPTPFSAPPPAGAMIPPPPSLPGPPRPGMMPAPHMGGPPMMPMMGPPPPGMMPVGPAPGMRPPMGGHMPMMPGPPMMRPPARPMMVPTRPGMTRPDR
UniProt Q5T200: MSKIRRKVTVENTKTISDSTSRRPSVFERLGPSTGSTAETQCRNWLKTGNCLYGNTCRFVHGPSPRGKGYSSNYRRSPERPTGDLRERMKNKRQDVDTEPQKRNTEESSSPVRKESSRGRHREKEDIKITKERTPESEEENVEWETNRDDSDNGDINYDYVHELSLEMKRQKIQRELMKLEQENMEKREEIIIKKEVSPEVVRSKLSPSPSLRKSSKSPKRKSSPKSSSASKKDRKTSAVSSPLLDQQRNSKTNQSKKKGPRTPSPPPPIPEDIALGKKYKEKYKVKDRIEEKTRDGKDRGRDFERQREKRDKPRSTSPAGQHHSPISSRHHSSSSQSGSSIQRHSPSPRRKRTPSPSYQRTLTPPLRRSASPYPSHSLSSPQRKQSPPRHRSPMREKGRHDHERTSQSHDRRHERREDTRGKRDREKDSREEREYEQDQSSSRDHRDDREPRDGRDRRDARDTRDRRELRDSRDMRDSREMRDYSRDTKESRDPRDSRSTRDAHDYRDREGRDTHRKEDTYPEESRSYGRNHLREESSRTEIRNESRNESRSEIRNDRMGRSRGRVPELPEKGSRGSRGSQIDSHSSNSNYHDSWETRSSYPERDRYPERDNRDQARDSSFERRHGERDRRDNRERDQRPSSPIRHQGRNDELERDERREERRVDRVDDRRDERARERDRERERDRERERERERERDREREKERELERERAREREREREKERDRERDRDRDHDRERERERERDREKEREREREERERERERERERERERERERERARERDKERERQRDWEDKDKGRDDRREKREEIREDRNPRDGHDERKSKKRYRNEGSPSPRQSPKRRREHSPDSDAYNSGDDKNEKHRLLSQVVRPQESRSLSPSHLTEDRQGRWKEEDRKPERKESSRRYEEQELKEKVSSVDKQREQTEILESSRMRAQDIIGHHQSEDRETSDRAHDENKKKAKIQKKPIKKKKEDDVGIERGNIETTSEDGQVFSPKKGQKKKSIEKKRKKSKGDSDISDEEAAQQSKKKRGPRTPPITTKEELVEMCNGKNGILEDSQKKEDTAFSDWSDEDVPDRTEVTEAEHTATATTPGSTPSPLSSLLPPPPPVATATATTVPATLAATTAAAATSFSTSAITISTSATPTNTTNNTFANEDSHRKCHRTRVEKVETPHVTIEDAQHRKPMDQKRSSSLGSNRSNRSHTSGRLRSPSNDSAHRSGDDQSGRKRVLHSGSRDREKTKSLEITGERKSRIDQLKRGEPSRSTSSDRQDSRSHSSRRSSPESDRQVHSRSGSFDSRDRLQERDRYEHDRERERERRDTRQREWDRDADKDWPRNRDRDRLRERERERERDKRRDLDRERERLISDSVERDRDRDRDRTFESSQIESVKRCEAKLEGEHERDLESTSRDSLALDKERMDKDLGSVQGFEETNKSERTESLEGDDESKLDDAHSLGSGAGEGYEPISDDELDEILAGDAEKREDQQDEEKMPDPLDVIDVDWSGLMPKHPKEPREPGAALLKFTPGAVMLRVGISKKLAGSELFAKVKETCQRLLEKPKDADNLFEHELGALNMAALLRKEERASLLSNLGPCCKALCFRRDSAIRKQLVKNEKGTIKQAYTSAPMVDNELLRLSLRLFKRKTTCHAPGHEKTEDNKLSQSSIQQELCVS

These are yes or no findings as the source states them, for the method shown. Binding seen in cells or lysates may run through a third protein. These calls come from enrichment with a bait or labelling near it, and not all partners need be listed. For some of these results: Tags and fused reporters may be left off the sequences shown.

To fix the notation:
B1: DDX46 (protein, UniProt Q7L014 1-1031)
chain: MGRESRHYRKRSASRGRSGSRSRSRSPSDKRSKRGDDRRSRSRDRDRRRERSRSRDKRRSRSRDRKRLRRSRSRERDRSRERRRSRSRDRRRSRSRSRGRRSRSSSPGNKSKKTENRSRSKEKTDGGESSKEKKKDKDDKEDEKEKDAGNFDQNKLEEEMRKRKERVEKWREEQRKKAMENIGELKKEIEEMKQGKKWSLEDDDDDEDDPAEAEKEGNEMEGEELDPLDAYMEEVKEEVKKFNMRSVKGGGGNEKKSGPTVTKVVTVVTTKKAVVDSDKKKGELMENDQDAMEYSSEEEEVDLQTALTGYQTKQRKLLEPVDHGKIEYEPFRKNFYVEVPELAKMSQEEVNVFRLEMEGITVKGKGCPKPIKSWVQCGISMKILNSLKKHGYEKPTPIQTQAIPAIMSGRDLIGIAKTGSGKTIAFLLPMFRHIMDQRSLEEGEGPIAVIMTPTRELALQITKECKKFSKTLGLRVVCVYGGTGISEQIAELKRGAEIIVCTPGRMIDMLAANSGRVTNLRRVTYVVLDEADRMFDMGFEPQVMRIVDNVRPDRQTVMFSATFPRAMEALARRILSKPIEVQVGGRSVVCSDVEQQVIVIEEEKKFLKLLELLGHYQESGSVIIFVDKQEHADGLLKDLMRASYPCMSLHGGIDQYDRDSIINDFKNGTCKLLVATSVAARGLDVKHLILVVNYSCPNHYEDYVHRAGRTGRAGNKGYAYTFITEDQARYAGDIIKALELSGTAVPPDLEKLWSDFKDQQKAEGKIIKKSSGFSGKGFKFDETEQALANERKKLQKAALGLQDSDDEDAAVDIDEQIESMFNSKKRVKDMAAPGTSSVPAPTAGNAEKLEIAKRLALRINAQKNLGIESQDVMQQATNAILRGGTILAPTVSAKTIAEQLAEKINAKLNYVPLEKQEEERQDGGQNESFKRYEEELEINDFPQTARWKVTSKEALQRISEYSEAAITIRGTYFPPGKEPKEGERKIYLAIESANELAVQKAKAEITRLIKEELIRLQNSYQPTNKGRYKVL
B2: FIP1L1 (protein, UniProt Q6UN15 1-594)
chain: MSAGEVERLVSELSGGTGGDEEEEWLYGGPWDVHVHSDLAKDLDENEVERPEEENASANPPSGIEDETAENGVPKPKVTETEDDSDSDSDDDEDDVHVTIGDIKTGAPQYGSYGTAPVNLNIKTGGRVYGTTGTKVKGVDLDAPGSINGVPLLEVDLDSFEDKPWRKPGADLSDYFNYGFNEDTWKAYCEKQKRIRMGLEVIPVTSTTNKITAEDCTMEVTPGAEIQDGRFNLFKVQQGRTGNSEKETALPSTKAEFTSPPSLFKTGLPPSRNSTSSQSQTSTASRKANSSVGKWQDRYGRAESPDLRRLPGAIDVIGQTITISRVEGRRRANENSNIQVLSERSATEVDNNFSKPPPFFPPGAPPTHLPPPPFLPPPPTVSTAPPLIPPPGFPPPPGAPPPSLIPTIESGHSSGYDSRSARAFPYGNVAFPHLPGSAPSWPSLVDTSKQWDYYARREKDRDRERDRDRERDRDRDRERERTRERERERDHSPTPSVFNSDEERYRYREYAERGYERHRASREKEERHRERRHREKEETRHKSSRSNSRRRHESEEGDSHRRHKHKKSKRSKEGKEAGSEPAPEQESTEATPAE
B3: endogenous LUC7L3 (protein, UniProt O95232 1-432)
chain: MISAAQLLDELMGRDRNLAPDEKRSNVRWDHESVCKYYLCGFCPAELFTNTRSDLGPCEKIHDENLRKQYEKSSRFMKVGYERDFLRYLQSLLAEVERRIRRGHARLALSQNQQSSGAAGPTGKNEEKIQVLTDKIDVLLQQIEELGSEGKVEEAQGMMKLVEQLKEERELLRSTTSTIESFAAQEKQMEVCEVCGAFLIVGDAQSRVDDHLMGKQHMGYAKIKATVEELKEKLRKRTEEPDRDERLKKEKQEREEREKEREREREERERKRRREEEEREKERARDRERRKRSRSRSRHSSRTSDRRCSRSRDHKRSRSRERRRSRSRDRRRSRSHDRSERKHRSRSRDRRRSKSRDRKSYKHRSKSRDREQDRKSKEKEKRGSDDKKSSVKSGSREKQSEDTNTESKESDTKNEVNGTSEDIKSEGDTQSN

The first assay concerns the target full-length recombinant GST-fused and Myc-tagged U1-70K (rU1-70K) (UniProt P08621). As to the kind of experiment: affinity purification with mass spectrometry.
In the case of SRSF1 (from UniProt Q07955 1-248), the binding entry is listed as “binds”.
Take U1A (from UniProt P09012 1-282): the binding result is on record as “binds”.
Still for that read-out and setting: to U1C (from UniProt P09234 1-159) belongs “binds”.
Same read-out and setting: to ZC3H13 (from UniProt Q5T200 1-1668) belongs “binds”.

A further assay shares this target. Nature of the assay: affinity purification with mass spectrometry. The source holds these as a separate data set.
For the molecule B1, the binding result was “binds”.
In the case of B2, the binding entry is reported as “binds”.
Regarding B3, the binding entry is listed as “binds”.
